# Measurements reported in article PMC5996148.
# “And” between values parts separate entries of the source, which are not always exact repeats. Equal entries are not always repeated. Some of the results follow. For some of these results: The exact form of the protein is not confirmed.
# Assays:
# Test in all cases: protein microarray (ProtoArray v5.0), streptavidin-Alexa Fluor 647
# Details in all cases: 3'-biotin; 20 mM Tris (pH 7.5), 5 mM MgCl2, 100 mM KCl, 0.1% Tween-20, A/T-rich and random oligonucleotide blockers; temperature not stated; high values mean tight binding
# [1] = system: AHSG (human)
# [2] = system: AIF1 (human)
# [3] = target: AK2 (UniProt P54819)
# [4] = system: AK3 (human)
# [5] = system: AK3L1 (human)
# [6] = system: AKR1B10 (human)
# [7] = system: AKR1C1 (human)
# [8] = system: AKR1C3 (human)
# [9] = target: AKT2 (UniProt P31751)
# [10] = system: ALAD (human)
sequence,measurement,setting,value
GGGAGGCTGAGGCAGG [G4-1 biotinylated (PQS2)],binding signal,[1],-0.349 z-score
same,binding signal,[2],-0.347 z-score and -0.354 z-score
same,binding signal,[3],-0.337 z-score
same,binding signal,[4],-0.339 z-score
same,binding signal,[5],-0.343 z-score
same,binding signal,[6],-0.337 z-score
same,binding signal,[7],-0.347 z-score
same,binding signal,[8],-0.291 z-score
same,binding signal,[9],-0.271 z-score
same,binding signal,[10],-0.311 z-score

# 2 consecutive records out of the list so far, quoted:
sequence,measurement,setting,value
GGGAGGCTGAGGCAGG [G4-1 biotinylated (PQS2)],binding signal,[7],-0.347 z-score
same,binding signal,[8],-0.291 z-score
